Experimental data as given in article PMC11197005.
These are yes or no findings as the source states them, for the method shown. Some entries that bind do so weakly or less than the wild type.

Protein sequences, listed by entry. Tags and fused reporters are not part of them. Residues count along the entry.
UniProt P08603, residues 19-1231: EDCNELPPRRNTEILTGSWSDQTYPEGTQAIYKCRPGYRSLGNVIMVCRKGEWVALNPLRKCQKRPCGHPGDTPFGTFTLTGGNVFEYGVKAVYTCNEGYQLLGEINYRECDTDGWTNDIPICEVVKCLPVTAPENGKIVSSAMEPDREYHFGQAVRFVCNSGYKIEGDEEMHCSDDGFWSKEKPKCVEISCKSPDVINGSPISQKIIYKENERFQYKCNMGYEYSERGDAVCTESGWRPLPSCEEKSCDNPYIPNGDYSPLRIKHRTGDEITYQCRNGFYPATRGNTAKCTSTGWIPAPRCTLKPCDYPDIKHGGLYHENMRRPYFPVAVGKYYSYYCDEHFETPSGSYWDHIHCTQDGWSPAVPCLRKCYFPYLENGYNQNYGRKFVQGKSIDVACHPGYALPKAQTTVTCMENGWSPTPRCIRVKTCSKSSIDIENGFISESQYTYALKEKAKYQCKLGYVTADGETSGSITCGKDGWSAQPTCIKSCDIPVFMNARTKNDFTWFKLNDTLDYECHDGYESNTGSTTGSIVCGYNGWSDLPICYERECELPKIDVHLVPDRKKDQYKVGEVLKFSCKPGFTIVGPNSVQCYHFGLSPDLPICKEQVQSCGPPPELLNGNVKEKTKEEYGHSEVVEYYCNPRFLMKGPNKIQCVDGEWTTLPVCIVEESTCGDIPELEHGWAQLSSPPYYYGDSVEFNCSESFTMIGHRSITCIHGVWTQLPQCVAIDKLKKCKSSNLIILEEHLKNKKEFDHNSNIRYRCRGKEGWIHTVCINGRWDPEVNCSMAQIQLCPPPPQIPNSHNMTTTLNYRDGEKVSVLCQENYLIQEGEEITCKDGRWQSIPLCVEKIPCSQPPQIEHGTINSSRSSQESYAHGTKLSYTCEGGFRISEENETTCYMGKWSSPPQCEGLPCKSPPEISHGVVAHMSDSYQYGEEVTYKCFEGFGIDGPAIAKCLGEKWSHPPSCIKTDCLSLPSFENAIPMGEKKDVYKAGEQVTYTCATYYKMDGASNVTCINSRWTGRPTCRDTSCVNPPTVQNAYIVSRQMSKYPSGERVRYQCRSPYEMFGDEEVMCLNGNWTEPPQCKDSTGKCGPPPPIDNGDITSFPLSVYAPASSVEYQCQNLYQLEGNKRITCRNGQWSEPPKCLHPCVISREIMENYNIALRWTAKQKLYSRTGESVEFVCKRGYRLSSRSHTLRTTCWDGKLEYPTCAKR

What was measured:
[1] = target: purified human plasma complement Factor H concentrate (human) (UniProt P08603); test: native gel or EMSA; native PAGE on 4-15% gels in Tris/Glycine, 5 h at 100 V; purified FH stored at 1.5 and 3 mg/ml, commercial FH at 1 mg/ml; both purified
[2] = target: commercial purified human FH (Merck) (human) (UniProt P08603); test: as above

Substance	binding [1]	binding [2]
purified human plasma complement Factor H concentrate (from UniProt P08603 19-1231)	binds weakly	
commercial purified human FH (Merck) (from UniProt P08603 19-1231)		binds weakly
